No constants are given. Whether binding was seen depends on the method and setting. Binding seen in cells or lysates may run through a third protein. Some results given as binding are weak or reduced against the parent protein; the word gives no strength.
Target: Yes-associated protein 1 (YAP1) (human (in human PC cell lines; endogenous or transfected not stated)) (UniProt P46937)
Assay: co-IP; immunoprecipitation from PC cells; which protein was precipitated and which cell line are not told; performed as previously described (ref. 17)

Sequences of proteins named here, by UniProt entry; tags and fusion partners are left off.
UniProt P46937: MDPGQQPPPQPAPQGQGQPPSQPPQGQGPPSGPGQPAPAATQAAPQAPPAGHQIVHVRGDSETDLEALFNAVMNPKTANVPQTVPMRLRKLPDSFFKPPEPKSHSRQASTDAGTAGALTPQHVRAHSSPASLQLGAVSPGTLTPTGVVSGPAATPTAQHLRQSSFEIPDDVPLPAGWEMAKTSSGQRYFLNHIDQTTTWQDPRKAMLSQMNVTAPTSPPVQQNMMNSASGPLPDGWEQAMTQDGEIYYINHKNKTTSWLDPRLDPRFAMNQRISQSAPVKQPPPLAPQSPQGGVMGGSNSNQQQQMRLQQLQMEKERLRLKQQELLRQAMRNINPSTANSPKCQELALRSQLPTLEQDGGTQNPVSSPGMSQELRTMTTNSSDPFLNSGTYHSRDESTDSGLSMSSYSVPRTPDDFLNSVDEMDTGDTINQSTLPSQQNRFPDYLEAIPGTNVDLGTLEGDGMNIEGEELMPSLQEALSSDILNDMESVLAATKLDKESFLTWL

binding: binds
B1: tripartite motif-29 (TRIM29) (protein, UniProt Q14134 1-588)
chain: MEAADASRSNGSSPEARDARSPSGPSGSLENGTKADGKDAKTTNGHGGEAAEGKSLGSALKPGEGRSALFAGNEWRRPIIQFVESGDDKNSNYFSMDSMEGKRSPYAGLQLGAAKKPPVTFAEKGELRKSIFSESRKPTVSIMEPGETRRNSYPRADTGLFSRSKSGSEEVLCDSCIGNKQKAVKSCLVCQASFCELHLKPHLEGAAFRDHQLLEPIRDFEARKCPVHGKTMELFCQTDQTCICYLCMFQEHKNHSTVTVEEAKAEKETELSLQKEQLQLKIIEIEDEAEKWQKEKDRIKSFTTNEKAILEQNFRDLVRDLEKQKEEVRAALEQREQDAVDQVKVIMDALDERAKVLHEDKQTREQLHSISDSVLFLQEFGALMSNYSLPPPLPTYHVLLEGEGLGQSLGNFKDDLLNVCMRHVEKMCKADLSRNFIERNHMENGGDHRYVNNYTNSFGGEWSAPDTMKRYSMYLTPKGGVRTSYQPSSPGRFTKETTQKNFNNLYGTKGNYTSRVWEYSSSIQNSDNDLPVVQGSSSFSLKGYPSLMRSQSPKAQPQTWKSGKQTMLSHYRPFYVNKGNGIGSNEAP
